Reference: article PMC7862700
Only a part is listed here, and it is no random draw. At the low end of the ranking the order means little.

What follows are sequences tested against SPI1 (UniProt P17947) (assay: DAPPL (digital affinity profiling via proximity ligation, sequencing)). Conditions: 10 mM Tris-HCl pH 7.5, 50 mM NaCl, 1 mM DTT, 4% glycerol, room temperature, 30 min; GST-TFs on glutathione beads, 16-mer random dsDNA library, 0.1% …; high values mean tight binding; double strand, one strand shown; scale: fold enrichment (6-mer frequency, TF over GST control).
GGGTGT was tested, and the binding signal was 0.69. CCAGTC was tested, and the binding signal was 0.264. ACGTGC showed a binding signal of 0.752. Sequence GGACCC has a binding signal of 0.776. Sequence GAGTTC has a binding signal of 0.765. CCGTCG gave a binding signal of 0.855. For ACGCAA, the binding signal was 0.883. GGTGCT showed a binding signal of 0.852. Work on AGTTGG yielded a binding signal of 0.559. Work on AGTTGT yielded a binding signal of 0.832. In the case of GGCCGC, the binding signal is reported as 0.796. AGATTG gave a binding signal of 0.784. In the case of GAGTAA, the binding signal is reported as 0.565. For ACGGGG, the binding signal was 0.619. Sequence GGTGAT has a binding signal of 0.754. Sequence CTGAGA has a binding signal of 0.716. CGGGTC gave a binding signal of 0.706. GGGGGG showed a binding signal of 0.534. Work on CGTGGG yielded a binding signal of 0.362. AGCGAG gave a binding signal of 0.642. GGGCCA showed a binding signal of 0.658. Sequence AAGAGT has a binding signal of 0.783. With GACACA the binding signal was 0.87. CGTTAG gave a binding signal of 0.857. With GAGGTC the binding signal was 0.54. For GATTGA, the binding signal was 0.919. TAGGCG was tested, and the binding signal was 0.62. GGCCGT showed a binding signal of 0.403. GTCGTC gave a binding signal of 0.722. Sequence GAGGTG has a binding signal of 0.452. With GCACCG the binding signal was 0.66. GCATAT was tested, and the binding signal was 0.937. Work on GTGAAT yielded a binding signal of 0.94. Sequence CGGAGA has a binding signal of 0.201. Sequence GCGCAG has a binding signal of 0.856. In the case of AGCGTT, the binding signal is reported as 0.912. With GGCAGG the binding signal was 0.588. GTGGCG showed a binding signal of 0.861. For CAACAG, the binding signal was 0.863. With CAAGGA the binding signal was 0.762.
